According to PMC12431657, “Discovery and mechanistic insights of dibenzoylmethane as a broad spectrum inhibitor of coronavirus” (PLOS Pathogens, 2025):
Where a name gives a salt, the structure may show the parent alone. Read-outs that look alike come from different tables or passages of the source. Hit rate of the full screen: of about 3,300 compounds, about 60 (2%) showed an effect of 50% or more. Some of the results follow. Peptide text beside a SMILES is read from it.

Test system: HCoV-OC43
Set-up: species or system RD; HTS, protection from HCoV-OC43 induced cell death, luminescent cell viability (CellCounting-Lite 2.0), inhibition rate
Conditions: 24 h post infection, 1 h compound pre-incubation, 10 µM, inhibitor

Row | Compound | OC43 Inhibition rate [%] | OC43 Inhibition rate (OC43 Inhibition rate, 24 h) [%]
1 | C[C@H](CC[C@@H](O[C@@H]1O[C@H](CO[C@@H]2O[C@H](CO)[C@@H](O)[C@H](O)[C@H]2O)[C@@H](O)[C@H](O)[C@H]1O[C@@H]1O[C@H](CO)[C@@H](O)[C@H](O)[C@H]1O)C(C)(C)O)[C@H]1CC[C@@]2(C)[C@@H]3CC=C4[C@@H](CC[C@H](O[C@@H]5O[C@H](CO[C@@H]6O[C@H](CO)[C@@H](O)[C@H](O)[C@H]6O)[C@@H](O)[C@H](O)[C@H]5O)C4(C)C)[C@]3(C)[C@H](O)C[C@]12C [Mogroside V] | 0.3 | –
2 | CC(=O)OCc1cocc2c(C=O)ccc1-2 [Baldrinal] | 0.3 | –
3 | COc1c(C)c(O)cc2[o+]c(-c3ccccc3)ccc12 [Dracorhodin perchlorate] | 2.9 | –
4 | CC(C)=C[C@H]1C[C@](C)(O)[C@@H]2[C@H]3CC[C@@H]4[C@@]5(C)CC[C@H](O[C@@H]6O[C@H](CO)[C@@H](O)[C@H](O[C@@H]7O[C@H](CO)[C@@H](O)[C@H](O)[C@H]7O)[C@H]6O[C@@H]6O[C@@H](CO)[C@H](O)[C@H]6O)C(C)(C)[C@@H]5CC[C@@]4(C)[C@@]34CO[C@@]2(C4)O1 [Bacoside A3] | -1.3 | –
5 | CC(=O)O[C@@H]1CC[C@@]2(C)[C@@H](CC[C@]3(C)[C@@H]2CC=C2[C@@H]4CC(C)(C)CC[C@]4(C)CC[C@]23C)[C@@]1(C)C(=O)O [3-O-Acetyl-α-boswellic acid] | 0 | –
6 | O=C1C=C(O)C(=O)c2ccccc21 [Lawsone] | -0.1 | –
7 | C/C=C(/C)C(=O)O[C@H]1c2cc(OC)c(OC)c(OC)c2-c2c(cc(OC)c(OC)c2OC)C[C@H](C)[C@]1(C)O [Angeloylgomisin Q] | 0.8 | –
8 | CN1CC(=O)NC1=O [N-Methylhydantoin] | -0.4 | –
9 | CC1(C)[C@@H]2CC[C@@]1(C)[C@H](O)C2 [Isoborneol] | -0.3 | –
10 | NCCCCNCCCN [Spermidine] | – | -0.8
11 | CC(CO)C(=O)O (centres unmarked) [3-Hydroxyisobutyric acid] | 0.6 | –
12 | O=C(OCc1ccccc1)c1ccccc1O [Benzyl salicylate] | 0.1 | –
13 | COc1cc2c(=O)c(-c3ccc(O)cc3)coc2cc1O [Glycitein] | 2.8 | –
14 | O=C(CCCCc1ccc2c(c1)OCO2)N1CCCCC1 [Tetrahydropiperine] | 0.1 | –
15 | O=C(/C=C/c1ccccc1)c1ccccc1 [Chalcone] | – | 0
16 | COC(=O)CC(C)=O [Methyl acetylacetate] | -1.4 | –
17 | COC(=O)C1=CO[C@@H](O[C@@H]2O[C@H](CO)[C@@H](O)[C@H](O)[C@H]2O)[C@H]2[C@@H]1[C@H](O)C[C@]2(C)OC(C)=O [Barlerin] | -0.3 | –
18 | Oc1cc(O)c2c(c1)O[C@H](c1ccc(O)c(O)c1)[C@H](O)C2 [(-)-Epicatechin] | -0.7 | –
19 | O=C(O)CCCCCCCCCCCCCCCCC(=O)O [Octadecanedioic acid] | -0.2 | –
20 | CC(C)=CCC12Oc3cc(O)ccc3C1(O)Oc1cc(O)c([C@H]3C=C(C)C[C@@H](c4ccc(O)cc4O)[C@@H]3C(=O)c3ccc(O)cc3O)c(O)c1C2=O (some centres unmarked) [Sanggenon D] | 42.1 | –

Row | Compound | OC43 Inhibition rate [%] | OC43 Inhibition rate (OC43 Inhibition rate, 24 h) [%]
21 | CCCCC/C=C/C(=O)CCc1ccc(O)c(OC)c1 [Shogaol] | 2.7 | –
22 | O=C(O)[C@@H](O)[C@H](O)[C@H](O)[C@@H](O)C(=O)O [Mucic acid] | -0.6 | –
23 | N[C@H]1C(O)O[C@H](CO)[C@@H](O)[C@@H]1O (some centres unmarked) [Glucosamine (sulfate)] | – | -0.2
24 | C/C=C(/C)C(=O)Oc1c(OC)c(OC)cc2c1-c1c(cc(OC)c(OC)c1OC)C[C@](C)(O)[C@@H](C)C2 [Angeloylgomisin H] | -1.4 | –
25 | O=C1C[C@@H](c2ccc(O[C@@H]3O[C@H](CO)[C@@H](O)[C@H](O)[C@H]3O)cc2)Oc2cc(O)cc(O)c21 [Choerospondin] | 0.4 | –
26 | CC(C)=CCc1c(O)ccc(C(=O)/C=C/c2ccc(O)cc2)c1O [Isobavachalcone] | 2 | –
27 | C/C=C/c1ccc(OC)cc1 [Trans-Anethole] | – | 0.5
28 | CO[C@H]1/C=C/O[C@@]2(C)Oc3c(C)c(O)c4c(O)c(cc(O)c4c3C2=O)NC(=O)/C(C)=C\C=C\[C@H](C)[C@H](O)[C@@H](C)[C@@H](O)[C@@H](C)[C@H](OC(C)=O)[C@@H]1C [Rifamycin (sodium)] | 22.2 | –
29 | CCCCCCCCCCCCCC(=O)O[C@@H]1[C@@H](C)[C@@]2(O)[C@@H](C=C(CO)C[C@]3(O)C(=O)C(C)=C[C@@H]23)[C@@H]2C(C)(C)[C@]12OC(C)=O [Phorbol 12-myristate 13-acetate] | 30.1 | –
30 | C[C@H](CCC(=O)NCC(=O)O)[C@H]1CC[C@H]2[C@@H]3[C@@H](O)C[C@@H]4C[C@H](O)CC[C@]4(C)[C@H]3CC[C@]12C [Glycoursodeoxycholic acid] | -0.4 | –
31 | CCO[C@@H]1O[C@H](C(=O)O)[C@@H](O)[C@H](O)[C@H]1O [Ethyl glucuronide] | 4.2 | –
32 | Cn1c(=O)[nH]c(=O)c2[nH]cnc21 [3-Methylxanthine] | -0.2 | –
33 | COc1ccc(-c2cc(=O)c3c(O)c(OC)c(O[C@@H]4O[C@H](CO[C@@H]5O[C@@H](C)[C@H](O)[C@@H](O)[C@H]5O)[C@@H](O)[C@H](O)[C@H]4O)cc3o2)cc1 [Pectolinarin] | 0.2 | –
34 | COc1ccc(C[C@H]2COC(=O)[C@@H]2Cc2ccc(O[C@@H]3O[C@H](CO)[C@@H](O)[C@H](O)[C@H]3O)c(OC)c2)cc1OC [Arctiin] | -2.6 | –
35 | O=C(O)[C@H](O)c1ccccc1 [D-(-)-Mandelic acid] | -1.3 | –
36 | CCCCCCC/C=C/C(=O)N1C(=O)C(C(C)=O)=C(O)[C@H]1CC(C)C [Reutericyclin] | -0.7 | –
37 | COc1cc(OC)c(CCC(=O)c2ccc(O)cc2)c(OC)c1 [Loureirin B] | 0.8 | –
38 | O=c1c(O)c(-c2ccc(O)cc2)oc2cc(O)ccc12 [3,7,4'-Trihydroxyflavone] | 6.8 | –
39 | N[C@@H](Cc1c[nH]c2ccc(O)cc12)C(=O)O [L-5-Hydroxytryptophan] | – | -0.8
40 | OCC1=C[C@@H](O)[C@]2(O[C@@H]3O[C@H](CO)[C@@H](O)[C@H](O)[C@H]3O)C=CO[C@@H](O[C@@H]3O[C@H](CO)[C@@H](O)[C@H](O)[C@H]3O)[C@H]12 [Melittoside] | 1.8 | –

Row | Compound | OC43 Inhibition rate [%] | OC43 Inhibition rate (OC43 Inhibition rate, 24 h) [%]
41 | Oc1ccc2c(c1)OC[C@H]1c3cc4c(cc3O[C@@H]21)OCO4 [Maackiain] | – | 2.3
42 | c1ccc2[nH]ccc2c1 [Indole] | -0.4 | –
43 | COc1cc(O[C@@H]2O[C@H](CO[C@@H]3O[C@H](CO)[C@@H](O)[C@H](O)[C@H]3O)[C@@H](O)[C@H](O)[C@H]2O)c2c(O)c3c(=O)cc(C)oc3cc2c1 [Rubrofusarin gentiobioside] | 1.1 | –
44 | Cn1cnc2[nH]c(=O)[nH]c(=O)c21 [7-Methylxanthine] | -1.5 | –
45 | O=c1cc(-c2ccccc2)c2cc(O)c(O)cc2o1 [Nordalbergin] | 0.7 | –
46 | O=C(O)CNC(=O)/C=C/c1ccccc1 [Cinnamoylglycine] | 0 | –
47 | CC1CNC(=O)NC1=O (centres unmarked) [5,6-Dihydro-5-methyluracil] | 0.1 | –
48 | Cc1cc(O)c2c(c1)C(=O)c1cccc(O)c1C2=O [Chrysophanol] | 0.2 | –
49 | COc1ccc(-c2cc(=O)c3c(O)cc(O[C@@H]4O[C@H](CO)[C@@H](O)[C@H](O)[C@H]4O)cc3o2)cc1 [Tilianin] | 8.5 | –
50 | C[C@H](CCC(=O)O)[C@H]1CC[C@H]2[C@@H]3[C@H](O)CC4=CC(=O)CC[C@]4(C)[C@H]3CC[C@]12C [3-Oxo-7-hydroxychol-4-enoic acid] | -1 | –
51 | O=c1ccc2cc(O)c(O)cc2o1 [Esculetin] | -0.3 | –
52 | C[C@@H]1CC[C@@]2(OC1)O[C@H]1C[C@H]3[C@@H]4CC=C5C[C@@H](O)C[C@@H](O[C@@H]6O[C@H](C)[C@H](O)[C@H](O[C@@H]7OC[C@@H](O)[C@H](O)[C@H]7O)[C@H]6O[C@@H]6O[C@@H](C)[C@H](O)[C@@H](O)[C@H]6O)[C@]5(C)[C@H]4CC[C@]3(C)[C@H]1[C@@H]2C [Ophiopogonin D'] | – | -0.3
53 | COc1cc([C@@H]2OC[C@@H]3[C@H]2CO[C@H]3c2cc(OC)c(O)c(OC)c2)cc(OC)c1O [(-)-Syringaresinol] | 0.6 | –
54 | CS/C=C/C(=O)NCCO[C@@H]1O[C@H](CO)[C@@H](O)[C@H](O)[C@H]1O [Entadamide-A-β-D-glucopyranoside] | -0.1 | –
55 | C[C@H](CCC(=O)NCC(=O)O)[C@H]1CC[C@H]2[C@@H]3[C@H](O)C[C@@H]4C[C@H](O)CC[C@]4(C)[C@H]3C[C@H](O)[C@]12C [Glycocholic acid] | – | -0.5
56 | N[C@@H](CCC(=O)O)C(=O)N[C@@H](Cc1c[nH]c2ccccc12)C(=O)O [Oglufanide] (H-Glu-Trp-OH) | 0.6 | –
57 | CC(C)c1cc2c(c(O)c1O)[C@@]13CCCC(C)(C)[C@@H]1C[C@@H]2OC3=O [Carnosol] | -0.4 | –
58 | Cc1ncc(C[n+]2csc(CCO)c2C)c(N)n1 [Thiamine (hydrochloride)] | – | 1.2
59 | O=C1c2c(O)cccc2C([C@@H]2O[C@H](CO)[C@@H](O)[C@H](O)[C@H]2O)c2cc(CO)cc(O)c21 (some centres unmarked) [Aloin] | 0.3 | –

A few values from above.
Under OC43 Inhibition rate [%], COc1cc(O[C@@H]2O[C@H](CO[C@@H]3O[C@H](CO)[C@@H](O)[C@H](O)[C@H]3O)[C@@H](O)[C@H](O)[C@H]2O)c2c(O)c3c(=O)cc(C)oc3cc2c1 [Rubrofusarin gentiobioside] is listed with 1.1
Under OC43 Inhibition rate [%], N[C@@H](CCC(=O)O)C(=O)N[C@@H](Cc1c[nH]c2ccccc12)C(=O)O [Oglufanide] (H-Glu-Trp-OH) is listed with 0.6
